According to PMC13534945:
Where cells or extracts were used, other partners may take part. For some of these results: A negative result means that nothing was seen under these conditions. For some of these results: The exact form of at least one protein or probe is not confirmed. For some of these results: At least one verdict rests on a figure or table, not on a statement of the authors. For some of these results: The direction of at least one scale is not stated here.

Legend:
[1] = molecular target: GATA1 (endogenous, K562) (Homo sapiens) (UniProt P15976); assay: native holdup single-point, western blot; conditions: native holdup on streptavidin resin with total cell extract (1 or 0.1 mg/ml) in lysis buffer with added Mg2+ and K+ and lowered ionic strength, protein in an extract, label: 5' biotin on forward strand
[2] = molecular target: HA-GATA1s (short) (Homo sapiens) (UniProt P15976); assay: native holdup titration, western blot; conditions: native holdup on streptavidin resin with total cell extract (1 or 0.1 mg/ml) in lysis buffer with added Mg2+ and K+ and lowered ionic strength; protein in a lysate after overexpression; protein details: HA; label: 5' biotin on forward strand
[3] = molecular target: GATA1 (endogenous, K562) (Homo sapiens) (UniProt P15976); assay: native holdup titration, western blot; conditions: native holdup on streptavidin resin with total cell extract (1 or 0.1 mg/ml) in lysis buffer with added Mg2+ and K+ and lowered ionic strength, protein in an extract, label: 5' biotin on forward strand
[4] = molecular target: HA-GATA1 V205M (Homo sapiens) (UniProt P15976); assay: native holdup titration, western blot; conditions: no major consistent perturbation; native holdup on streptavidin resin with total cell extract (1 or 0.1 mg/ml) in lysis buffer with added Mg2+ and K+ and lowered ionic strength; protein in a lysate after overexpression; residues 1-413; protein details: HA (N-terminal); label: 5' biotin on forward strand
[5] = molecular target: HA-GATA1 D218Y (Homo sapiens) (UniProt P15976); assay: native holdup titration, western blot; conditions: no major consistent perturbation; native holdup on streptavidin resin with total cell extract (1 or 0.1 mg/ml) in lysis buffer with added Mg2+ and K+ and lowered ionic strength; protein in a lysate after overexpression; residues 1-413; protein details: HA (N-terminal); label: 5' biotin on forward strand
[6] = molecular target: HA-GATA1 WT (Homo sapiens) (UniProt P15976); assay: native holdup titration, western blot; conditions: affinity nearly identical to endogenous GATA1; native holdup on streptavidin resin with total cell extract (1 or 0.1 mg/ml) in lysis buffer with added Mg2+ and K+ and lowered ionic strength; protein in a lysate after overexpression; residues 1-413; protein details: HA (N-terminal); label: 5' biotin on forward strand
[7] = molecular target: HA-GATA1 R307C (Homo sapiens) (UniProt P15976); assay: native holdup titration, western blot; conditions: native holdup on streptavidin resin with total cell extract (1 or 0.1 mg/ml) in lysis buffer with added Mg2+ and K+ and lowered ionic strength; protein in a lysate after overexpression; residues 1-413; protein details: HA (N-terminal); label: 5' biotin on forward strand
[8] = molecular target: HA-GATA1 C228R (Homo sapiens) (UniProt P15976); assay: native holdup titration, western blot; conditions: native holdup on streptavidin resin with total cell extract (1 or 0.1 mg/ml) in lysis buffer with added Mg2+ and K+ and lowered ionic strength; protein in a lysate after overexpression; residues 1-413; protein details: HA (N-terminal); label: 5' biotin on forward strand
[9] = molecular target: HA-GATA1 C282R (Homo sapiens) (UniProt P15976); assay: native holdup titration, western blot; conditions: native holdup on streptavidin resin with total cell extract (1 or 0.1 mg/ml) in lysis buffer with added Mg2+ and K+ and lowered ionic strength; protein in a lysate after overexpression; residues 1-413; protein details: HA (N-terminal); label: 5' biotin on forward strand
[10] = molecular target: HA-GATA1 R216W (Homo sapiens) (UniProt P15976); assay: native holdup titration, western blot; conditions: no major consistent perturbation; native holdup on streptavidin resin with total cell extract (1 or 0.1 mg/ml) in lysis buffer with added Mg2+ and K+ and lowered ionic strength; protein in a lysate after overexpression; residues 1-413; protein details: HA (N-terminal); label: 5' biotin on forward strand
[11] = biotin control, minimal binding, not a significant partner

ATGCCATTGCTTCATGCACGTATAGCCACTG (double strand) [SCR2]
binding result [1, 11]: no binding

CCACTCTGTTCTAGAGAAGCCTTCGTGAACT (double strand) [SCR1]
binding result [1, 11]: no binding

GAATTGAGAGGTATCTTACCGCTCCCACTCC (double strand) [51_HAP]
binding signal (fold increased affinity vs WT) [2]: 4
Kd ([3]; 1 mg/ml extract): 130 nM
binding result [4]: binds
binding result [5]: binds
binding result [6]: binds
binding signal (fold decreased affinity vs WT) [7]: 5.3
binding signal (fold decreased affinity vs WT) [8]: 15
binding result [9]: no binding
binding result [10]: binds

GAATTGAGAGGTATCTTATCGCTCCCACTCC (double strand) [51_WT]
binding result ([1]; biotin, SCR1 or SCR2 control): binds
binding signal (fold increased affinity vs WT) [2]: 1.6
Kd ([3]; 1 mg/ml extract): 17 nM
binding result [4]: binds
binding result [5]: binds
binding result [6]: binds
binding signal (fold decreased affinity vs WT) [7]: 2
binding signal (fold decreased affinity vs WT) [8]: 2
binding result [9]: no binding
binding result [10]: binds

GCGCTATCAGATAAGGCCTTG (double strand) [CTRLpalindrome]
Kd [3]: 140 nM

TCAGCCCTCCGTATCGTCACCTACAC (double strand) [4945_WT]
Kd ([3]; 0.1 mg/ml extract): 200 nM
Kd ([3]; 1 mg/ml extract): 100 nM

TCAGCCCTCCGTTTTGTCACCTACAC (double strand) [4945_HAP]
binding signal (fold weaker than 4945 WT) ([3]; 1 mg/ml extract, marginal interaction): 100
